Experimental data as given in PMC4227133.
Results are given in words; binding and its absence hold for the method and conditions named. Tags and fused reporters may be left off the sequences shown.

Target: ceHexim F156L fused to the Gal4 DNA-binding domain (C. elegans)
Assay: two-hybrid; C. elegans proteins: ceHexim fused to the Gal4 DNA-binding domain, cit-1.2 fused to the Gal4 activation domain; growth in LTU medium (lacking uracil)

B1: C. elegans Cyclin T (cit-1.2), wild type, fused to the Gal4 activation domain (protein, UniProt P34424 1-555)
chain: MSNSNKLIAEKNGSRYGRMIHPWLRKKQDMLADTPSRREGMTYEEELSKRQQGGVFIFDIAMQLTHGKGEHGLSGVAATLFNRFFNVHSLKRCDFRDVAAACVFLAGKNEDAPKKLKYVVTQLWQFKYPHNKQFQSEQHFLDQCNVVTLIEDVLLKTISFDINVDLPHQYVLKLMRDVEKGRNVYKDMVKTAYYMATDVLIITDWSVRYSCASIATACVNIAAFFHNINMDDIVPFELSDRWYRLEDQSMTREEVEAMTKEFLDIFSRNPQFHIGSLKKIDPLGKVKIVGMPPQVSSTVTPSGSSSNLKKIDLESYKGRPKPLSNSSDSPSTRPSFLPDVKNQKVVEQELMEQRMKEAAQQKIHRNGHRPSSSSHPLHHHSTSSSASNNSNHQNRSSSGLSAHQHQKPYNEDSRSAKRSMMYEETNSSKKPRIDYKMSFVASSSTTIATMHNDHFSQTTHQQNISTYARGVNEMMLNQVAPPPLMSVSAQPSTYQKMCMEYQRNPADSRHTMSSTQQISPPDEPSPPVSQILLPPPPPPPILPPRLDEMEEGELV
- binding: no binding
